Results reported in US20170051040A1.
Results are given in words; binding and its absence hold for the method and conditions named. Some results given as binding are weak or reduced against the parent protein; the word gives no strength.

Protein sequences, listed by entry. Tags and fused reporters are not part of them. Residues count along the entry.
UniProt P41597: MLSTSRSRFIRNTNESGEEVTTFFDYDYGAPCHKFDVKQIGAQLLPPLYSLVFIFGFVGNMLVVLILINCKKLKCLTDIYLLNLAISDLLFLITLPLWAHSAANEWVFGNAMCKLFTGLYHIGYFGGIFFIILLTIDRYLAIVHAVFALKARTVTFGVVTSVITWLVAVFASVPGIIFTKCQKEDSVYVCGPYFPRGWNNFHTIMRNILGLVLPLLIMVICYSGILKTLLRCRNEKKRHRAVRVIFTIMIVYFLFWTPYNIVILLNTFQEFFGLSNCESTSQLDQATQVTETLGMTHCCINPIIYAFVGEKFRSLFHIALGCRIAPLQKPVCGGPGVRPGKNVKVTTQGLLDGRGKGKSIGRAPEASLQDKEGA
UniProt P13500, residues 24-99: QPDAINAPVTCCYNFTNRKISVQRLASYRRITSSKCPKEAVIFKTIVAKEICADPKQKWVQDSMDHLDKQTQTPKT

Experiments:
[1] = target: CC chemokine receptor 2 (CCR2) stably expressed on HEK293 cells (human) (UniProt P41597); assay: flow cytometry on HEK-CCR2 cells; displaced by unlabelled CCL2, not by ECL1 (C) inverso
[2] = target: CC chemokine receptor 2 (CCR2) stably expressed on HEK293 cells (human) (UniProt P41597); assay: competition binding on HEK-CCR2 cells, flow cytometry; competitor of the tracer CCL2-Alexa-647
[3] = target: CC chemokine receptor 2 (CCR2) stably expressed on HEK293 cells (human) (UniProt P41597); assay: competition binding on HEK-CCR2 cells; tracers [125I]-CCL2 (gamma counting) and CCL2-Alexa 647 (flow cytometry)

Row | Substance | binding [1] | binding [2] | binding [3]
1 | CCL2-Alexa 647 (from UniProt P13500 24-99) (ligand) | binds |  | 
2 | recombinant human CCL2 (from UniProt P13500 24-99) (ligand) |  | binds | binds
